PubChem BioAssay AID1347075 (National Center for Advancing Translational Sciences (NCATS), 2019)
Out of some 400,000 compounds screened, about 5,500 (1.4%) were called active. Inconclusive means that the source gave no clear call. Such entries were picked first, then a sample of the others. Calls follow the shape of the dose curve; as a rule, active = well fitted cell-killing curve with a large enough effect; inconclusive = small, poorly fitted or top-dose-only effect, or effect the other way; inactive = flat fitted curve, though single readings scatter. Potencies of inconclusive entries are doubtful fits and often do not repeat.

Test: qHTS assay for MDR1-selective chemotherapeutics: Primary screen using the parental adenocarcinoma cell KB-3-1; also: nearly all actives have a fitted effect of over 60% in size
Conditions: KB-3-1 viability, CellTiter-Glo ATP luminescence, 72 h; activity change, negative = cytotoxic: at 46.1 µM (top of the series)
Outline: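 Luminescent ATP read-out (CellTiter-Glo) measures survival of drug-naive KB-3-1 cells after 72 h compound exposure at 37 °C. Titration series was screened from lowest to highest concentration, with DMSO vehicle plates as background controls.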
% is scaled to controls: 0 for no effect and ±100 for the full control effect; potency is read from the fitted curve at half-maximal effect.

SMILES | activity change, negative = cytotoxic | Potency
C#CCOCCOCCOCCNc1nc(N2CCN(C(=O)CCCCCCCCCCNC(=O)[C@H](CCCCN)n3cc(CCO)nn3)CC2)nc(N2CCN(C(=O)CCCCCCCCCCNC(=O)[C@H](CCCCN)n3cc(CCO)nn3)CC2)n1 | inactive: -0.01% | 
CCCOc1ccc2oc(=O)c3c(c2c1)CCCN3C(=O)CN1CCCC(C(=O)OCC)C1 (stereo unspecified) | inactive: -21.2% | 
Nc1c(NC=O)c(=O)n(Cc2ccccc2)c(=O)n1Cc1ccccc1 | inactive: 11.3% | 
c1ccc(CNc2c3c(nc4ncnn24)CCC3)cc1 |  | inconclusive: 23.1 µM [cytotoxic, single point]
COc1ccc(OC)c(Nc2ncnc3c2cnn3-c2ccc(C)cc2)c1 | inactive: -1.45% | 
CC(=O)C(=Cc1ccc(Cl)cc1)C(=O)c1ccccc1 |  | inconclusive: 29.1 µM [cytotoxic, single point]
COc1cc(C(=O)N2CCN(C(=O)c3cc(-c4ccccc4)n[nH]3)CC2)cc(OC)c1OC | inactive: 16.9% | 
COc1ccccc1-c1cc(NC=O)c2ncc(-c3cccc(C(F)(F)F)c3)n2c1 |  | inconclusive: 29.1 µM [cytotoxic, single point]
Cc1ccc(NS(=O)(=O)c2c(C)nc3sccn3c2=O)cc1C |  | inconclusive: 29.1 µM [cytotoxic, single point]
CNC(=S)/N=C/NOCc1ccc(Cl)cc1Cl |  | inconclusive: 16.4 µM [cytotoxic, partial curve]
CC(=O)N1c2ccccc2C(=O)C1N1CCN(c2cccc(C(F)(F)F)c2)CC1 (stereo unspecified) | inactive: 0.816% | 
CC(=O)N1Cc2ccccc2C(C)CC12CCCCC2 (stereo unspecified) | inactive: -0.207% | 
O=C(Nc1nc(-c2ccc(Cl)cc2)cs1)NC1CCCCC1 |  | inconclusive: 29.1 µM [cytotoxic, single point]
Cc1cccc(CNC(=O)CCCN2C(=O)CCn3nc(-c4cn(C)c5ccccc45)cc32)c1 |  | inconclusive: 0.0291 µM [rising, full curve]
O=C(c1cc([N+](=O)[O-])ccc1N1CCCC1)N1CCCCC1 | inactive: 1.53% | 
FC(F)(F)c1cnc(NNC(=S)Nc2ccc(Cl)cc2)c(Cl)c1 |  | inconclusive: 20.6 µM [cytotoxic, single point]
COc1ccc(C(OCC(O)CNCCc2ccccc2)c2ccc(OC)cc2)cc1 (stereo unspecified) |  | inconclusive: 18.4 µM [cytotoxic, single point]
CC/C(=N\NC(=O)CCC(=O)NCc1ccccc1)c1ccc(O)cc1 |  | active: 3.26 µM
Cc1nn(C)c(C(=O)N/N=C/c2ccc(-c3ccccc3)cc2)c1Cl | inactive: -3.13% | 
Nc1nc2c(ncn2[C@@H]2O[C@H](CNCc3ccccc3)[C@@H](O)[C@H]2O)c(=O)[nH]1 | inconclusive: -13.8% | 
COc1ccc(Cl)cc1-n1c(C)ccc1C |  | inconclusive: 16.4 µM [cytotoxic, single point]
Cc1cc(C=CC#N)cc(C)c1Nc1nc(Nc2ccc3c(c2)CCC3)c2[nH]cnc2n1 |  | inconclusive: 23.1 µM [cytotoxic, single point]
O=C(NCCN1CCOCC1)c1ccc(Cl)c(Cl)c1 | inactive: 14.8% | 

A draw from above in order of molar mass, ascending.
SMILES | activity change, negative = cytotoxic | Potency
COc1ccc(Cl)cc1-n1c(C)ccc1C |  | inconclusive: 16.4 µM [cytotoxic, single point]
c1ccc(CNc2c3c(nc4ncnn24)CCC3)cc1 |  | inconclusive: 23.1 µM [cytotoxic, single point]
CC(=O)N1Cc2ccccc2C(C)CC12CCCCC2 (stereo unspecified) | inactive: -0.207% | 
O=C(c1cc([N+](=O)[O-])ccc1N1CCCC1)N1CCCCC1 | inactive: 1.53% | 
O=C(Nc1nc(-c2ccc(Cl)cc2)cs1)NC1CCCCC1 |  | inconclusive: 29.1 µM [cytotoxic, single point]
Cc1ccc(NS(=O)(=O)c2c(C)nc3sccn3c2=O)cc1C |  | inconclusive: 29.1 µM [cytotoxic, single point]
CC/C(=N\NC(=O)CCC(=O)NCc1ccccc1)c1ccc(O)cc1 |  | active: 3.26 µM
FC(F)(F)c1cnc(NNC(=S)Nc2ccc(Cl)cc2)c(Cl)c1 |  | inconclusive: 20.6 µM [cytotoxic, single point]
CC(=O)N1c2ccccc2C(=O)C1N1CCN(c2cccc(C(F)(F)F)c2)CC1 (stereo unspecified) | inactive: 0.816% | 
CCCOc1ccc2oc(=O)c3c(c2c1)CCCN3C(=O)CN1CCCC(C(=O)OCC)C1 (stereo unspecified) | inactive: -21.2% | 

Additional results.

SMILES | activity change, negative = cytotoxic | Potency
CC(=O)COc1nc2c(c(-c3ccco3)c1C#N)CCc1ccccc1-2 |  | inconclusive: 20.6 µM [cytotoxic, partial curve, poor fit]
CCC(=O)Nc1c(S(=O)(=O)c2ccccc2)c2nc3ccccc3nc2n1Cc1ccccc1 |  | inconclusive: 20.6 µM [cytotoxic, single point]
Cc1ccc(CCNC(=O)c2cn(C)c3ccc(S(=O)(=O)N4CCCCC4)cc3c2=O)cc1 |  | inconclusive: 18.4 µM [rising, single point]
O=C(C1CCC1)N1CCN(S(=O)(=O)c2ccccc2)CC1 |  | inconclusive: 32.6 µM [cytotoxic, single point]
CC(C)c1ccc(-c2cc(C(=O)N3N=C(C(F)F)CC3(O)C(F)F)c3ccccc3n2)cc1 (stereo unspecified) |  | inconclusive: 22.4 µM [cytotoxic, single point]
COc1cc(/C=C(\C#N)C(=O)Nc2ccc(C(=O)O)cc2)ccc1OC(=O)c1cccc(F)c1 | inactive: -3.2% | 
C=CCSc1nc(-c2ccc(OC)cc2)c(C#N)c(=O)n1CC=C | inactive: -2.43% | 
COc1ccc(C(=O)COc2ccc3ccc(=O)oc3c2)cc1 |  | inconclusive: 10.3 µM [rising, partial curve]
COc1ccc(Cl)cc1N1C(=NC(=O)C2CCCO2)SC2CS(=O)(=O)CC21 (stereo unspecified) | inactive: 15.9% | 
Cc1ccc(S(=O)(=O)CC(=O)N2CCCC2)cc1 | inactive: 12.8% | 
CCc1cccc(NC(=O)CCS(=O)(=O)c2cc(Br)cc3c2N(C(C)=O)CC3)c1 | inactive: -6.79% | 
N#Cc1c(NC2CCCCC2)nc(-c2ccco2)c2c1CCCC2 |  | inconclusive: 18.4 µM [cytotoxic, single point]
O=C(NCc1ccccc1Cl)c1cc2ccccc2o1 | inactive: -14.1% | 
CC(C)C[C@H](NC(=O)OCC1c2ccccc2-c2ccccc21)C(=O)O | inactive: -0.0281% | 
COc1ccc(OC)c(CCNC(=O)Cn2nc(C)c3c(C)n(-c4ccc(C)cc4)nc3c2=O)c1 |  | inconclusive: 1.3 µM [cytotoxic, full curve, poor fit]
COc1cccc(C(C(=O)NC(C)(C)C)N(Cc2ccco2)C(=O)CCC(=O)Nc2cc(C)on2)c1OC (stereo unspecified) |  | inconclusive: 23.1 µM [rising, single point]
CC(=O)Nc1cccc(Oc2nc(-c3ccccn3)nc3ccccc23)c1 |  | inconclusive: 29.1 µM [cytotoxic, single point]
O=C(Nc1ccccc1)C1=C[C@H](c2csc3ccccc23)C[C@H](OCc2ccc(CO)cc2)O1 |  | inconclusive: 25.9 µM [cytotoxic, single point]
COc1ccc(N=Nc2cc(OC)c(N)cc2OC)cc1 |  | inconclusive: 10.3 µM [rising, partial curve]
COc1ccc(C(C#N)c2nc3ccccc3nc2Cl)cc1 (stereo unspecified) |  | inconclusive: 29.1 µM [cytotoxic, single point]
CCCNC(=O)COC(=O)/C=C/c1cccc(F)c1 | inactive: -3.97% | 
COc1ccc(-c2nn(CCC#N)cc2/C=N/O)cc1OC |  | inconclusive: 29.1 µM [rising, single point]
COc1cc(C(=O)Nc2ccc(S(=O)(=O)N3CCCCC3C)cc2)cc(OC)c1OC (stereo unspecified) |  | inconclusive: 18.4 µM [cytotoxic, single point]
